Experimental data as given in the supplement of paper PMC6411743.
± gives the standard deviation of the averaged measurements. The list shows a part of the results.

Amino acid sequences for entries named in this document (tags omitted). A change or cut given only in a name is not applied to a line headed by its entry.
UniProt Q99623, whole entry: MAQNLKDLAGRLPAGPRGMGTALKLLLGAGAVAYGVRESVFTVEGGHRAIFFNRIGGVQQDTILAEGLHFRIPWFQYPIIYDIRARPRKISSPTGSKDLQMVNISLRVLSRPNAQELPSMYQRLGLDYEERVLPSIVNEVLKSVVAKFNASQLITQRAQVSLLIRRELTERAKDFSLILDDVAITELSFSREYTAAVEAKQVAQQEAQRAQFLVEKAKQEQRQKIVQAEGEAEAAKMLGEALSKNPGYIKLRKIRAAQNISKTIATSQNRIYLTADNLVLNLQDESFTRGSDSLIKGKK
UniProt Q9BXK1: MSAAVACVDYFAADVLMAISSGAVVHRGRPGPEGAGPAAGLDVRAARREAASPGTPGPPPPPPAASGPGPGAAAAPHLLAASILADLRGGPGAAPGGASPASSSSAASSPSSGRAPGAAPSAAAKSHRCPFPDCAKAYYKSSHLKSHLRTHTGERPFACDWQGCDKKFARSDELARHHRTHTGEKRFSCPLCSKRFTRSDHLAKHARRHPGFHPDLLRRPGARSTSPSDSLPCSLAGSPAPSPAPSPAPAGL
UniProt Q99575: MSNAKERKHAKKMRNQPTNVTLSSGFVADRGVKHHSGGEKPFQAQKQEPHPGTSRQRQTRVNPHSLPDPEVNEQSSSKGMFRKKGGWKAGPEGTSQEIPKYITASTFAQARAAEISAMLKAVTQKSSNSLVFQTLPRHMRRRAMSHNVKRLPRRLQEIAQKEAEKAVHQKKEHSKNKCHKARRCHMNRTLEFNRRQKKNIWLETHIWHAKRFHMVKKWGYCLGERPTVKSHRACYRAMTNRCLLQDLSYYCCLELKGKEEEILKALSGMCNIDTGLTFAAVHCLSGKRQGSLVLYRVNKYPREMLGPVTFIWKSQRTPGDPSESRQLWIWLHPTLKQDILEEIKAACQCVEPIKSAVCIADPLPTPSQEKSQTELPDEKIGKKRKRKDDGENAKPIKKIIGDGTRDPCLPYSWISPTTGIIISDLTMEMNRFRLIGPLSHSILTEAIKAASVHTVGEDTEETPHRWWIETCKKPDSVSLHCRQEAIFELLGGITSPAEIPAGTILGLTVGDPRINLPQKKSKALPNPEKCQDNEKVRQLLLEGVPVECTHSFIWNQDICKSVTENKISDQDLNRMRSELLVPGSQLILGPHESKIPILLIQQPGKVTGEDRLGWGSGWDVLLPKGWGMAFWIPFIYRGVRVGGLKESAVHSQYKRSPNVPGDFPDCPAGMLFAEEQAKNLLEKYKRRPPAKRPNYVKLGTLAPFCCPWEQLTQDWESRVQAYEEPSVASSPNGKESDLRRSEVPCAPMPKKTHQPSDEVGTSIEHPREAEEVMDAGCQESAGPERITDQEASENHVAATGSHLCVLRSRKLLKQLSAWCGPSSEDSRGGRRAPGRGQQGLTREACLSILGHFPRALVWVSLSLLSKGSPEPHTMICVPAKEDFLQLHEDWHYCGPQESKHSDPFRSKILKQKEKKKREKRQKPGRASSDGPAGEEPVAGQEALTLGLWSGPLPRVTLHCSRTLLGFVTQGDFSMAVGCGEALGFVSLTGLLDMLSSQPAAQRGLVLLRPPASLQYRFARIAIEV
UniProt Q9BPW8: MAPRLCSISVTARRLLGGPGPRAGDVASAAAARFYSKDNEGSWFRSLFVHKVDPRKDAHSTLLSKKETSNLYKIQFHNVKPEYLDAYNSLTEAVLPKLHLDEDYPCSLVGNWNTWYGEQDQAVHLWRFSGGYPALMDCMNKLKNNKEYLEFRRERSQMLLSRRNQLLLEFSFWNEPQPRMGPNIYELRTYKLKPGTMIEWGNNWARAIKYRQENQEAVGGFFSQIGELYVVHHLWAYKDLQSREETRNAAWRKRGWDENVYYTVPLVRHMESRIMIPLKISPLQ
UniProt Q96MW5: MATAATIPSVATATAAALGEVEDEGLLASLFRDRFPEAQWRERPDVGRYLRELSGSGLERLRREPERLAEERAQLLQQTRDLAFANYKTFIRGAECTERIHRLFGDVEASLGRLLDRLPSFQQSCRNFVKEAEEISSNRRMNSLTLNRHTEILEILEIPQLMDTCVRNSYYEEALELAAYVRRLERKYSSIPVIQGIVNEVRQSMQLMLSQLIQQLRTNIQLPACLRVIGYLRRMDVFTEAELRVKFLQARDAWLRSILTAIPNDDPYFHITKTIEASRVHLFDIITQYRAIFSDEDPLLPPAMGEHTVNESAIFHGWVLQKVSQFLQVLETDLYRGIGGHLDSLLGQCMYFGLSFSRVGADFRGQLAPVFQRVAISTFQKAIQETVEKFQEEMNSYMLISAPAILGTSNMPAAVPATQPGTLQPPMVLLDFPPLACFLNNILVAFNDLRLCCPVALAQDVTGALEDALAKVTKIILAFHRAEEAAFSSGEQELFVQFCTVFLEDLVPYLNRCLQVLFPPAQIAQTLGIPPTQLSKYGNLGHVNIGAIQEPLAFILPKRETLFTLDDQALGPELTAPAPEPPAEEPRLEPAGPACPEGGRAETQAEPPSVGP
UniProt Q96N66: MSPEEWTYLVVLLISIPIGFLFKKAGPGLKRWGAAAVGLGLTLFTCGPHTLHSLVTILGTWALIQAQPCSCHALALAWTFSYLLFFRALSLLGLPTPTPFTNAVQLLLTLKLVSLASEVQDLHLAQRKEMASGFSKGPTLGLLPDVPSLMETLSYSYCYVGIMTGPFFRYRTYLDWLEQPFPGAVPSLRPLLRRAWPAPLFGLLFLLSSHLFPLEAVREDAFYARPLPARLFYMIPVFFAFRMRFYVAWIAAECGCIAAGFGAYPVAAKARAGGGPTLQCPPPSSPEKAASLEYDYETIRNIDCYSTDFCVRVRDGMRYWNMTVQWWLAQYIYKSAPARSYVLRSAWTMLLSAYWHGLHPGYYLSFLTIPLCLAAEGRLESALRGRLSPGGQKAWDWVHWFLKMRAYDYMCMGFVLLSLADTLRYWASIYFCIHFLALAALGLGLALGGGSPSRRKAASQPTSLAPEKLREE
UniProt Q99795: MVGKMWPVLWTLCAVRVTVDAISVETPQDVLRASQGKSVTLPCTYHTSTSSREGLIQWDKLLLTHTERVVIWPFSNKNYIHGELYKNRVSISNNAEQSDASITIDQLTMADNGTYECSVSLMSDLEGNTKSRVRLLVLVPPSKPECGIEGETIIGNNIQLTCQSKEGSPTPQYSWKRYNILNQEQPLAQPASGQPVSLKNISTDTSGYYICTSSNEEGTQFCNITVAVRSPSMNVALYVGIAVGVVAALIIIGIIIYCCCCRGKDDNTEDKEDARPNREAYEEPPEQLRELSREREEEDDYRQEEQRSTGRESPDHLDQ
UniProt Q99873, whole entry, looked up: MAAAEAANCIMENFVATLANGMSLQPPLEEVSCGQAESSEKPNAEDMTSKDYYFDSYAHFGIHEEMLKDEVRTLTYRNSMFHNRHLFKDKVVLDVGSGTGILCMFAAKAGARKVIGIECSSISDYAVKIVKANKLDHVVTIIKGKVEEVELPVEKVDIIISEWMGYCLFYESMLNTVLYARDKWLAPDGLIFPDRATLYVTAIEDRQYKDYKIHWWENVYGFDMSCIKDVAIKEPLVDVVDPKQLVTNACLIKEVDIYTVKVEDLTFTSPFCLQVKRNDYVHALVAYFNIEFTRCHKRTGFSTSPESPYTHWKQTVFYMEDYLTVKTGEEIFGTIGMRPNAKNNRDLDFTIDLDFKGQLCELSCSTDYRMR
UniProt Q9BW85: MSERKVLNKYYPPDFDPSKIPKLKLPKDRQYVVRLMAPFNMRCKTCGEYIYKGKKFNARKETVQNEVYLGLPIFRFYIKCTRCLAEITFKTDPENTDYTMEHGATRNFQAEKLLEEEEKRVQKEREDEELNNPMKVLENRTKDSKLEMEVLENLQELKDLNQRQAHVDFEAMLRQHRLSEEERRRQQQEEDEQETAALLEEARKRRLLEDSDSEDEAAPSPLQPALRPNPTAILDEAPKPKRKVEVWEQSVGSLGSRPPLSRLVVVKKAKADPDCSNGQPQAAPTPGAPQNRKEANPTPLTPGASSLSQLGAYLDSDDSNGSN
UniProt Q96ST3: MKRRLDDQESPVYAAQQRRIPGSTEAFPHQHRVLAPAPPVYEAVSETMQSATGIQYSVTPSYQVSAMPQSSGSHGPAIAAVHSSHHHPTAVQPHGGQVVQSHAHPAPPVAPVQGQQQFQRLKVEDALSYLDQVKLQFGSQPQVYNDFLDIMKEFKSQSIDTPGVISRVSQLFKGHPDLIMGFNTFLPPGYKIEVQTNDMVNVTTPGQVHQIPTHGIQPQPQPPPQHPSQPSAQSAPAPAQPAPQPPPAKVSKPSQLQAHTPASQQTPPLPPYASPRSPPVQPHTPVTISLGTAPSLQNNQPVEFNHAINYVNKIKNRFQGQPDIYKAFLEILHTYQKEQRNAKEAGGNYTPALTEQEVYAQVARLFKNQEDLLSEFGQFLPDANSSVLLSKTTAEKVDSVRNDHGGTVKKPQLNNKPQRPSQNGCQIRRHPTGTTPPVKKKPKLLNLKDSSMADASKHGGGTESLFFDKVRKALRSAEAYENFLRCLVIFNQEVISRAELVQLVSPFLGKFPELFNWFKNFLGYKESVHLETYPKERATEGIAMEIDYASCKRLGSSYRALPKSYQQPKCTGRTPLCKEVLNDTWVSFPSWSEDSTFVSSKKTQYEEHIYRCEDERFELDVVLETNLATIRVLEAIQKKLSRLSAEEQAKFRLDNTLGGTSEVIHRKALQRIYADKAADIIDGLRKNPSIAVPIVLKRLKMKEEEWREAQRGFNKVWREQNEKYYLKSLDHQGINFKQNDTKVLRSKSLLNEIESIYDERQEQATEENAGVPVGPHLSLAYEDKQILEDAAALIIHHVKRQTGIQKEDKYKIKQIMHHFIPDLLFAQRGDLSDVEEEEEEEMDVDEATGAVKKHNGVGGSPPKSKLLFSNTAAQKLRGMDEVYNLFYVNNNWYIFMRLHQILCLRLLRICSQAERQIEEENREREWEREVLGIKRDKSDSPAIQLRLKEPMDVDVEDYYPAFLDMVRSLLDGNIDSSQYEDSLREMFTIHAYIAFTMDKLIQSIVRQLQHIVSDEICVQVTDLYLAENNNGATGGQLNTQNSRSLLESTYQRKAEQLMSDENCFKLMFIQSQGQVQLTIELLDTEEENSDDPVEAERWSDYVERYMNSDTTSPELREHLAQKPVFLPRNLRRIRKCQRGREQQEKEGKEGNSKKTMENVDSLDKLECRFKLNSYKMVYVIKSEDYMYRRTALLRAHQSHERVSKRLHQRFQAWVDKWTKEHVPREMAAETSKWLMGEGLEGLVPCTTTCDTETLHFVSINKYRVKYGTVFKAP
UniProt Q96S52: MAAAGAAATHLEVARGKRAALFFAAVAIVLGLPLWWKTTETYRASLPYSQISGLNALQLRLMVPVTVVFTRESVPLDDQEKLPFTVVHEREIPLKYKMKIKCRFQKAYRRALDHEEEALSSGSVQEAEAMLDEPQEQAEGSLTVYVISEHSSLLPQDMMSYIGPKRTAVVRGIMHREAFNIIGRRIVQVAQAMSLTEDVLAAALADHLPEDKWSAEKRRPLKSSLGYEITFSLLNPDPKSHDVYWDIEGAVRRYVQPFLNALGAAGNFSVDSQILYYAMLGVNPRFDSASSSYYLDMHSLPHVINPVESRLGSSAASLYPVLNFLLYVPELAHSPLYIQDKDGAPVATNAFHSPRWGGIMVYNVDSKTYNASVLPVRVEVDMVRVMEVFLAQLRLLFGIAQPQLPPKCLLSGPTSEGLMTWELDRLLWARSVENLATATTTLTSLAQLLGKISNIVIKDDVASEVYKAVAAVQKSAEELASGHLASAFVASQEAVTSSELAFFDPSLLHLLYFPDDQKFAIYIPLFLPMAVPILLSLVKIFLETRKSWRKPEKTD
UniProt Q9BT09: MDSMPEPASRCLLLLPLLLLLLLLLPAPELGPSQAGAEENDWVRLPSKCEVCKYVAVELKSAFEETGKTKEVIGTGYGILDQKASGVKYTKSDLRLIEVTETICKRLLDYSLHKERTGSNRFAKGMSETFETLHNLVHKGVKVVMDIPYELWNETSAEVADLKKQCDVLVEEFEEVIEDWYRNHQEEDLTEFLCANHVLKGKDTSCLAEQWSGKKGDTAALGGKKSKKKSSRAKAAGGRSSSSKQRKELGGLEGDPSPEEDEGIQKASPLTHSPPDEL
UniProt Q99962: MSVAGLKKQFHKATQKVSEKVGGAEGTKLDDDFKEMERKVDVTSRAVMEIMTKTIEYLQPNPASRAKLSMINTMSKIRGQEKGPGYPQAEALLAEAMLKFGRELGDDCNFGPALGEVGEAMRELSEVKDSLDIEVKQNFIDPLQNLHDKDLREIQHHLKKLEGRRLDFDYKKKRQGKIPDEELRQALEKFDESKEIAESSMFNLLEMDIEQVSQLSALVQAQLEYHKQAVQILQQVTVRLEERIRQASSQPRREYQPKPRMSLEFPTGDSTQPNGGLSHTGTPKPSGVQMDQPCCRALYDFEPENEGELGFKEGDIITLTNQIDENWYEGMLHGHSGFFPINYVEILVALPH

Compound: Nc1nc2c(ncn2[C@@H]2O[C@H](COP(=O)(O)OP(=O)(O)OP(=O)(O)O)[C@@H](O)[C@H]2O)c(=O)[nH]1 [guanosine triphosphate]
Assay: NP40-soluble protein abundance relative to vehicle (solubility fold change) (ratio); higher = more soluble protein in presence of GTP
Outline: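 Jurkat crude lysate prepared with a Dounce homogeniser was treated at eight concentrations spanning 0.1 to 10 mM, 10 min at room temperature then 3 min at 37 °C. Solubilisation with 0.8% NP40 and benzonase and ultracentrifugation preceded TMT labelling of the supernatant for LC-MS/MS. Fold change against the detergent-processed vehicle was determined per replicate from vsn-normalised intensities, across three independent experiments.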

Target	NP40-soluble protein abundance (concentration: 0.1mM)	NP40-soluble protein abundance (concentration: 0.5mM)	NP40-soluble protein abundance (concentration: 1mM)	NP40-soluble protein abundance (concentration: 2mM)	NP40-soluble protein abundance (concentration: 4mM)	NP40-soluble protein abundance (concentration: 6mM)	NP40-soluble protein abundance (concentration: 8mM)	NP40-soluble protein abundance (concentration: 10mM)
UniProt Q99623 and related entries	1.02 ± 0.036	1.06 ± 0.079	0.977 ± 0.046	1.01 ± 0.12	1 ± 0.092	1.01 ± 0.12	0.955 ± 0.059	0.946 ± 0.08
RPRD1A (UniProt Q96P16)	0.96 ± 0.036	0.91 ± 0.057	1.01 ± 0.029	1.01 ± 0.047	1.04 ± 0.047	1.02 ± 0.021	0.962 ± 0.11	1.05 ± 0.02
CRAMP1 (UniProt Q96RY5)	1.19 ± 0.12	1.07 ± 0.047	1.13 ± 0.04	1.04 ± 0.13	1.12 ± 0.16	1.21 ± 0.24	1.35 ± 0.32	1.29 ± 0.36
KLF16 (UniProt Q9BXK1)	0.906 ± 0.048	0.831 ± 0.064	1.09 ± 0.061	1.03 ± 0.038	1.106 ± 0.0039	1.08 ± 0.041	0.998 ± 0.09	1.18 ± 0.085
ALKBH3 (UniProt Q96Q83)	1.01 ± 0.092	0.928 ± 0.056	0.943 ± 0.09	0.946 ± 0.1	0.945 ± 0.055	0.904 ± 0.05	0.929 ± 0.093	0.876 ± 0.15
POP1 (UniProt Q99575)	1.08 ± 0.033	1.09 ± 0.063	1.05 ± 0.044	1.1 ± 0.061	1.08 ± 0.1	1.13 ± 0.13	1.15 ± 0.087	1.12 ± 0.072
VAT1 (UniProt Q99536)	0.919 ± 0.097	0.953 ± 0.082	0.916 ± 0.081	0.902 ± 0.091	0.885 ± 0.089	0.891 ± 0.089	0.853 ± 0.099	0.86 ± 0.084
UniProt Q99470 and related entries	1.11 ± 0.11	1.1 ± 0.11	1.08 ± 0.13	1.06 ± 0.086	1.04 ± 0.12	1.02 ± 0.079	1.07 ± 0.072	1.06 ± 0.063
NIPSNAP1 (UniProt Q9BPW8)	1.02 ± 0.021	1.06 ± 0.086	0.901 ± 0.038	0.919 ± 0.059	0.887 ± 0.043	0.874 ± 0.044	0.839 ± 0.019	0.818 ± 0.047
MND1 (UniProt Q9BWT6)	0.801 ± 0.058	0.764 ± 0.027	0.901 ± 0.025	0.952 ± 0.054	0.885 ± 0.016	0.895 ± 0.08	0.817 ± 0.12	0.9206 ± 0.0042
UniProt Q96MW5 and related entries	1.01 ± 0.067	1.08 ± 0.083	1.02 ± 0.047	1.08 ± 0.037	1.09 ± 0.028	1.07 ± 0.08	1.07 ± 0.074	1.03 ± 0.099
GINS3 (UniProt Q9BRX5)	0.859 ± 0.039	0.839 ± 0.025	0.962 ± 0.036	0.9701 ± 0.0067	0.968 ± 0.026	0.945 ± 0.043	0.866 ± 0.097	0.981 ± 0.042
UniProt Q96N66 and related entries	1.05 ± 0.11	1.09 ± 0.038	0.977 ± 0.012	0.945 ± 0.041	0.951 ± 0.076	0.943 ± 0.037	0.913 ± 0.052	0.872 ± 0.061
UniProt Q9BY44 and related entries	0.971 ± 0.031	0.982 ± 0.051	0.928 ± 0.057	0.898 ± 0.059	0.903 ± 0.066	0.909 ± 0.07	0.912 ± 0.063	0.88 ± 0.09
GPA33 (UniProt Q99795)	0.897 ± 0.015	0.8973 ± 0.0018	0.937 ± 0.015	0.877 ± 0.052	0.82 ± 0.036	0.871 ± 0.066	0.878 ± 0.072	0.967 ± 0.047
MRPS26 (UniProt Q9BYN8)	1.07 ± 0.13	1.11 ± 0.11	1.31 ± 0.29	1.44 ± 0.33	1.42 ± 0.45	1.33 ± 0.3	1.22 ± 0.3	1.33 ± 0.42
UniProt Q99873-3|Q99873-4	1.05 ± 0.083	1.1 ± 0.16	0.953 ± 0.11	1 ± 0.18	0.976 ± 0.14	0.986 ± 0.15	0.927 ± 0.052	0.867 ± 0.093

Complete entries as entered above. Order of values: NP40-soluble protein abundance (concentration: 0.1mM)	NP40-soluble protein abundance (concentration: 0.5mM)	NP40-soluble protein abundance (concentration: 1mM)	NP40-soluble protein abundance (concentration: 2mM)	NP40-soluble protein abundance (concentration: 4mM)	NP40-soluble protein abundance (concentration: 6mM)	NP40-soluble protein abundance (concentration: 8mM)	NP40-soluble protein abundance (concentration: 10mM)
GINS3 (UniProt Q9BRX5) as listed: 0.859 ± 0.039	0.839 ± 0.025	0.962 ± 0.036	0.9701 ± 0.0067	0.968 ± 0.026	0.945 ± 0.043	0.866 ± 0.097	0.981 ± 0.042
UniProt Q96MW5 and related entries as listed: 1.01 ± 0.067	1.08 ± 0.083	1.02 ± 0.047	1.08 ± 0.037	1.09 ± 0.028	1.07 ± 0.08	1.07 ± 0.074	1.03 ± 0.099

Additional entries follow:

Target	NP40-soluble protein abundance (concentration: 0.1mM)	NP40-soluble protein abundance (concentration: 0.5mM)	NP40-soluble protein abundance (concentration: 1mM)	NP40-soluble protein abundance (concentration: 2mM)	NP40-soluble protein abundance (concentration: 4mM)	NP40-soluble protein abundance (concentration: 6mM)	NP40-soluble protein abundance (concentration: 8mM)	NP40-soluble protein abundance (concentration: 10mM)
UniProt Q99490-2	1 ± 0.18	0.983 ± 0.12	0.965 ± 0.14	0.96 ± 0.1	0.963 ± 0.12	0.938 ± 0.082	0.945 ± 0.15	0.926 ± 0.12
DIDO1 (UniProt Q9BTC0)	1.02 ± 0.055	1.07 ± 0.062	1.12 ± 0.077	1.13 ± 0.11	1.23 ± 0.12	1.23 ± 0.13	1.3 ± 0.22	1.28 ± 0.19
UniProt Q9BW85	0.952 ± 0.036	0.96 ± 0.084	0.981 ± 0.067	0.926 ± 0.11	0.936 ± 0.1	0.941 ± 0.1	0.974 ± 0.068	0.991 ± 0.079
SIN3A (UniProt Q96ST3)	1.02 ± 0.036	1.06 ± 0.028	1.06 ± 0.04	1.09 ± 0.069	1.13 ± 0.093	1.13 ± 0.086	1.16 ± 0.13	1.15 ± 0.11
UniProt Q96PM5 and related entries	1.1 ± 0.12	1.07 ± 0.13	1 ± 0.11	1.06 ± 0.16	0.994 ± 0.18	1.02 ± 0.14	1.02 ± 0.16	0.975 ± 0.11
MAK16 (UniProt Q9BXY0)	1.04 ± 0.12	1.08 ± 0.068	1.12 ± 0.13	1.1 ± 0.18	1.32 ± 0.2	1.27 ± 0.15	1.23 ± 0.14	1.3 ± 0.21
C1orf50 (UniProt Q9BV19)	0.989 ± 0.024	0.998 ± 0.061	1.02 ± 0.029	1.04 ± 0.087	0.968 ± 0.049	0.959 ± 0.084	1.02 ± 0.11	0.988 ± 0.04
UniProt Q96S52 and related entries	1.02 ± 0.053	1.06 ± 0.078	1.04 ± 0.046	1.05 ± 0.077	1.09 ± 0.094	1.11 ± 0.11	1.12 ± 0.086	1.15 ± 0.069
UniProt Q9BUK6 and related entries	1.023 ± 0.0083	0.975 ± 0.025	0.97 ± 0.047	0.957 ± 0.02	0.958 ± 0.059	0.966 ± 0.074	0.969 ± 0.02	0.93 ± 0.068
BCL2L13 (UniProt Q9BXK5)	0.942 ± 0.12	0.941 ± 0.086	0.951 ± 0.14	0.916 ± 0.15	0.928 ± 0.15	0.899 ± 0.12	0.938 ± 0.13	0.979 ± 0.12
SPATA5L1 (UniProt Q9BVQ7)	1.16 ± 0.12	1.16 ± 0.14	1.23 ± 0.13	1.36 ± 0.12	1.41 ± 0.087	1.41 ± 0.066	1.42 ± 0.016	1.4 ± 0.084
CNPY3 (UniProt Q9BT09)	0.85 ± 0.044	0.83 ± 0.079	0.886 ± 0.052	0.846 ± 0.064	0.823 ± 0.07	0.861 ± 0.089	0.838 ± 0.073	0.866 ± 0.076
DOK1 (UniProt Q99704)	1.01 ± 0.032	0.99 ± 0.036	0.996 ± 0.029	0.95 ± 0.013	0.907 ± 0.046	0.966 ± 0.036	0.9435 ± 0.0054	0.919 ± 0.019
UniProt Q96PU8 and related entries	0.968 ± 0.053	0.897 ± 0.05	1.01 ± 0.13	1 ± 0.037	0.985 ± 0.081	0.974 ± 0.058	0.982 ± 0.066	1.05 ± 0.083
BCL7B (UniProt Q9BQE9)	1.12 ± 0.14	1.13 ± 0.014	1.09 ± 0.14	1.17 ± 0.043	1.28 ± 0.23	1.13 ± 0.1	1.12 ± 0.075	1.17 ± 0.084
SH3GL2 (UniProt Q99962)	0.922 ± 0.014	0.876 ± 0.054	0.929 ± 0.065	1.05 ± 0.037	0.945 ± 0.1	0.887 ± 0.11	0.834 ± 0.065	0.927 ± 0.075
